# In publication PMC11952958:
# Test system: NF90long + NF45
# Test: SEC-SAXS; mass photometry
# Conditions: 18-bp complex formation: 30 min on ice, SEC in 20 mM HEPES pH 7.5, 150 mM NaCl, 1 mM DTT; mass photometry at 10-50 nM protein; recombinant protein
sequence,measurement,value
UCACUUUCAUAAUGCUGGUCACUUUCAUAAUGCUGG / CCAGCAUUAUGAAAGUGACCAGCAUUAUGAAAGUGA [36-bp dsRNA (SAXS)],binding result,binds

# For at least one entry, the source does not settle the construct or the ends of the probe. At least one verdict was read from the data and is not stated in words by the source.
